{
  "source": "patent US5480760A",
  "about": "“Sulfamoyl hydrogen bond donating groups on thermal solvents for image separation systems” (priority 1993, dated 1996)",
  "experiment": "heat activated image dye transfer to polymeric dye-receiver layer, Status A densitometry, Examples 5-8 (CD-2 developer)",
  "conditions": "Table IV",
  "procedure": "The following eight examples are prepared to examine the ability of materials to effect the transfer of image dye through intervening layers of gelatin binder into a polymeric dye receiver layer and are described by the coating format shown in FIG. 2. The first layer (FIG. 2, layer 14) contains gelatin binder and the material to be tested as a thermal solvent while the upper layer (FIG. 2, layer 16) contains the image generating chemistry comprising a silver chloride emulsion and a dispersion of a dye generating coupler in a gelatin binder. A third, protective overcoat, layer (FIG. 2, layer 15) containing gelatin and hardener is applied over the first two gelatin test layers. Films are exposed through a step tablet, processed in a photographic developer, bleach-fixed, wash, dried at low temperatures. The film thus obtained in referred to as an integral film. In the following examples the film is laminated with unsubbed ESTAR™ and heated by passing through a set of heated rollers to effect transfer of the dye from the gelatin image generating layer to the dye-receiver layer. The image generating layer is removed by protease digestion and warm water wash. These films are referred to as n-pass receiver layers where n is the number of passes through the heated rollers.\nTwo novel sulfamoyl hydrogen bond donating group containing thermal solvents of our invention (TS-1 and TS-2) for non-aqueous dye diffusion transfer are compared to n-octyl 4-hydroxybenzoate (CS-1) and to a film without additional compounds in the first gelatin layer (FIG. 2 layer 14). [drawing 7]\nThermal Solvent Melt Preparation. To a mixture of 3.90 g of the thermal solvent test compound and 2.40 g of ethyl acetate is added, with stirring, a warm solution consisting of 46.0 g of melted and filtered 7.8% gelatin and 4.3 g of a 10% solution of surfactant-A (Alkanol XC™, DuPont) in 33.4 g of distilled water. This mixture is dispersed by three passes through a Gaulin Dispersion Mill set at a gap of 0.005\". […]",
  "data": [
    {"smiles": "CCCCCCCCOC(=O)c1ccc(O)cc1", "note": "[CS-1, n-octyl 4-hydroxybenzoate]", "values": [
      {"measurement": "Obs. Green Density, Integral", "setting": "integral film before transfer", "result": 2.088},
      {"measurement": "Obs. Green Density, 1-pass Rec", "setting": "receiver layer, 1 pass through heated rollers", "result": 0.658},
      {"measurement": "Obs. Green Density, 3-pass Rec.", "setting": "receiver layer, 3 passes through heated rollers", "result": 0.833}
    ]}
  ]
}
